Literature values as cited in patent US20230392217A1 (priority 2020, published 2023).
Read-outs that look alike come from different tables or passages of the source. At least one compound was matched to its structure with a doubt left.

Columns and labels:
[1] = test system: methicillin-sensitive S. aureus (MSSA); conditions: cited from earlier work
[2] = test system: methicillin-resistant S. aureus (MRSA); conditions: cited from earlier work

CN(C)[C@@H]1C(O)=C(C(N)=O)C(=O)[C@@]2(O)C(O)=C3C(=O)c4c(O)cccc4[C@@](C)(O)[C@H]3C[C@@H]12 [Tetracycline, tetracycline]
antibiotic susceptibility/resistance ([1]; strain MSSA #1): Susceptible
antibiotic susceptibility/resistance ([1]; strain MSSA #2): Susceptible
antibiotic susceptibility/resistance ([1]; strain MSSA #3): Susceptible
antibiotic susceptibility/resistance ([1]; strain MSSA #4): Susceptible
antibiotic susceptibility/resistance ([1]; strain MSSA #5): Susceptible
antibiotic susceptibility/resistance ([1]; strain MSSA #6): Resistant
antibiotic susceptibility/resistance ([1]; strain MSSA #7): Resistant
antibiotic susceptibility/resistance ([1]; strain MSSA #8): Resistant
antibiotic susceptibility/resistance ([1]; strain MSSA #9): Resistant
antibiotic susceptibility/resistance ([1]; strain MSSA #10): Susceptible
antibiotic susceptibility/resistance ([1]; strain MSSA #11): Resistant
antibiotic susceptibility/resistance ([1]; strain MSSA #12): Susceptible
antibiotic susceptibility/resistance ([1]; strain MSSA #13): Susceptible
antibiotic susceptibility/resistance ([1]; strain MSSA #14): Susceptible
antibiotic susceptibility/resistance ([1]; strain MSSA #15): Susceptible
antibiotic susceptibility/resistance ([1]; strain MSSA #16): Susceptible
antibiotic susceptibility/resistance ([1]; strain MSSA #17): Susceptible
antibiotic susceptibility/resistance ([1]; strain MSSA #18): Susceptible
antibiotic susceptibility/resistance ([1]; strain MSSA #19): Susceptible
antibiotic susceptibility/resistance ([1]; strain MSSA #20): Susceptible
antibiotic susceptibility/resistance ([2]; strain MRSA #1): Resistant
antibiotic susceptibility/resistance ([2]; strain MRSA #2): Resistant
antibiotic susceptibility/resistance ([2]; strain MRSA #3): Susceptible
antibiotic susceptibility/resistance ([2]; strain MRSA #4): Susceptible
antibiotic susceptibility/resistance ([2]; strain MRSA #5): Resistant
antibiotic susceptibility/resistance ([2]; strain MRSA #6): Resistant
antibiotic susceptibility/resistance ([2]; strain MRSA #7): Susceptible
antibiotic susceptibility/resistance ([2]; strain MRSA #8): Resistant
antibiotic susceptibility/resistance ([2]; strain MRSA #9): Susceptible
antibiotic susceptibility/resistance ([2]; strain MRSA #10): Resistant
antibiotic susceptibility/resistance ([2]; strain MRSA #11): Resistant
antibiotic susceptibility/resistance ([2]; strain MRSA #12): Resistant
antibiotic susceptibility/resistance ([2]; strain MRSA #13): Resistant
antibiotic susceptibility/resistance ([2]; strain MRSA #14): Resistant
antibiotic susceptibility/resistance ([2]; strain MRSA #15): Susceptible
antibiotic susceptibility/resistance ([2]; strain MRSA #16): Susceptible
antibiotic susceptibility/resistance ([2]; strain MRSA #17): Resistant
antibiotic susceptibility/resistance ([2]; strain MRSA #18): Susceptible
antibiotic susceptibility/resistance ([2]; strain MRSA #19): Resistant
antibiotic susceptibility/resistance ([2]; strain MRSA #20): Resistant
antibiotic susceptibility/resistance ([2]; strain MRSA #21): Resistant
antibiotic susceptibility/resistance ([2]; strain MRSA #22): Resistant
antibiotic susceptibility/resistance ([2]; strain MRSA #23): Resistant
antibiotic susceptibility/resistance ([2]; strain MRSA #24): Susceptible
antibiotic susceptibility/resistance ([2]; strain MRSA #25): Resistant
antibiotic susceptibility/resistance ([2]; strain MRSA #26): Resistant
antibiotic susceptibility/resistance ([2]; strain MRSA #27): Susceptible
antibiotic susceptibility/resistance ([2]; strain MRSA #28): Resistant
antibiotic susceptibility/resistance ([2]; strain MRSA #29): Resistant
antibiotic susceptibility/resistance ([2]; strain MRSA #30): Resistant
